For assay [1], the target named is T1, c-Raf-derived phosphopeptide pSRaf259 (biotin-…pSTPN) (human).
T1 sequence (peptide, biotin on the N-terminus; phosphoserine at 259Ser (residue 11 of the peptide)): MAGGGRQRSTSTPN
The assay is described as follows: SPR; both purified. On the technique in general: SPR reads the build-up and loss of mass on a sensor chip optically.

Assay [2] has the same target. Description: pull-down; only the target purified.
For assay [3], the target named is T2, pRaf259 (biotin-…), 259Ser unphosphorylated (human).
T2 sequence (peptide, biotin on the N-terminus): MAGGGRQRSTSTPN
The assay is described as follows: pull-down; only the target purified.

Results are given in words; binding and its absence hold for the method and conditions named. For part of these data: In cells and extracts the contact can be indirect.

For “GST-14-3-3II (T. brucei 14-3-3II fused to glutathione S-transferase)”, the binding entry in assay [1] is “no binding (tested: 200 nM)”.

As for endogenous T. brucei 14-3-3I, the binding result in assay [2] and in assay [3] was “no binding” each time.

Source of the values: article PMC3006207, “Phosphorylation-Dependent Protein Interaction with Trypanosoma brucei 14-3-3 Proteins that Display Atypical Target Recognition” (PLoS ONE, 2010).
